Source: PubChem BioAssay AID652243 (Drosophila RNAi Screening Center, 2013)

Assay: 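Fly regulators of androgen-dependent reporter output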 (primary screen)
Cell system: Drosophila S2R+ cells
Knock-down reagent: long dsRNA against Drosophila genes
Timing: 72 h (48 h, then 24 h hormone)
Challenge: synthetic androgen R1881 at 10 nM for 24 h
Detection: 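Per-well raw luminescence of the androgen-driven firefly reporter and of the Renilla control, two replicates each, without normalisation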
Direction: firefly reporter light: higher = more light from androgen-responsive reporter; Renilla control light: higher = more constitutive control signal (cell number, transfection)
Hit rule: 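Hit when the log firefly-to-Renilla ratio dropped or increased by a fixed fold versus the mean of GFP or LacZ controls across duplicate plates; lowering cut given as 1.5 and as 3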
Calls: active = hit: reporter lowered or raised; inactive = no hit
In all, the deposit lists about 24,000 reagents; shown is a random part of those that have a named target and a result. Over the whole deposit, 246 (1%) were called active. 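Plates not normalised; calls are printed but the firefly/Renilla ratio behind them is not deposited; fold cut for lowering reported inconsistently.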 The raw values are shown without normalisation. The numbers tell different reagents against one gene apart. Not given: the amount of reagent.

target gene | dsRNA no. | firefly reporter light, replicate 1 | firefly reporter light, replicate 2 | Renilla control light, replicate 1 | Renilla control light, replicate 2 | outcome
CG33307 | 1 | 2.51e5 | 3.99e5 | 3.19e5 | 5.35e5 | inactive
CG7781 | 1 | 2.21e5 | 1.68e5 | 2.08e6 | 1.66e6 | inactive
CG14629 | 1 | 83887 | 1.32e5 | 1.74e6 | 1.56e6 | inactive
CG14629 | 2 | 6.29e5 | 7.74e5 | 9.00e5 | 8.72e5 | inactive
Rnf11 (Ring finger protein 11) | 1 | 5.04e5 | 5.93e5 | 2.52e6 | 3.06e6 | active
Rnf11 (Ring finger protein 11) | 2 | 3.83e5 | 2.32e5 | 6.25e5 | 6.08e5 | inactive
raw | 1 | 41716 | 52149 | 8.36e5 | 8.50e5 | inactive
raw | 2 | 1.27e5 | 41523 | 6.48e5 | 5.47e5 | inactive
CG13046 | 1 | 82350 | 1.37e5 | 1.14e6 | 1.63e6 | inactive
mahe (maheshvara) | 1 | 46185 | 61062 | 2.86e5 | 3.15e5 | inactive
mahe (maheshvara) | 2 | 6.77e5 | 6.08e5 | 6.71e5 | 5.99e5 | inactive
Delta | 1 | 2.46e5 | 2.68e5 | 2.57e6 | 2.93e6 | inactive
Delta | 2 | 3.46e5 | 2.90e5 | 4.29e5 | 4.31e5 | inactive
CG32720 | 1 | 4.87e5 | 6.10e5 | 3.80e5 | 4.92e5 | inactive
sha (shavenoid) | 1 | 2.15e5 | 1.72e5 | 1.63e6 | 7.03e5 | inactive

Records listed so far whose gene name starts with R or r (4):
target gene | dsRNA no. | firefly reporter light, replicate 1 | firefly reporter light, replicate 2 | Renilla control light, replicate 1 | Renilla control light, replicate 2 | outcome
Rnf11 (Ring finger protein 11) | 1 | 5.04e5 | 5.93e5 | 2.52e6 | 3.06e6 | active
Rnf11 (Ring finger protein 11) | 2 | 3.83e5 | 2.32e5 | 6.25e5 | 6.08e5 | inactive
raw | 1 | 41716 | 52149 | 8.36e5 | 8.50e5 | inactive
raw | 2 | 1.27e5 | 41523 | 6.48e5 | 5.47e5 | inactive

Further entries:
target gene | dsRNA no. | firefly reporter light, replicate 1 | firefly reporter light, replicate 2 | Renilla control light, replicate 1 | Renilla control light, replicate 2 | outcome
CG5214 | 1 | 1.65e5 | 1.45e5 | 2.82e6 | 2.33e6 | active
CG5214 | 2 | 4.96e5 | 7.81e5 | 9.86e5 | 1.05e6 | inactive
CG5214 | 3 | 8.43e5 | 8.27e5 | 7.53e5 | 8.07e5 | inactive
CG9626 | 1 | 63626 | 54019 | 5.27e5 | 4.45e5 | inactive
CG9626 | 2 | 4.56e5 | 3.38e5 | 7.20e5 | 2.56e5 | inactive
Oatp58Da (Organic anion transporting polypeptide 58Da) | 1 | 2.72e5 | 3.07e5 | 2.27e6 | 1.91e6 | inactive
Oatp58Da (Organic anion transporting polypeptide 58Da) | 2 | 5.65e5 | 4.68e5 | 4.76e5 | 3.52e5 | inactive
lectin-33A | 1 | 2.51e5 | 3.39e5 | 1.96e6 | 1.89e6 | inactive
lectin-33A | 2 | 8.38e5 | 7.98e5 | 2.18e6 | 1.55e6 | inactive
